The subject of the series is luciferase. As to the kind of experiment: Interference with the luciferase assay for ATP determination. To be noted: in words.

As to `CCN(CC)c1ncnc2c1ncn2C1OC(COP(=O)(O)OP(=O)(O)C(Br)(Br)P(=O)(O)O)C(O)C1O` (stereo not drawn) [ARL67156, N^6-Diethyl-β,γ-dibromomethylene-ATP], the “interference with the luciferase assay for ATP determination” value is given as “interferes with that assay”. The result for `CCOP(=O)(Cc1ccc(NC(=O)CNC(=O)[C@H]2O[C@@H](n3ccc(=O)[nH]c3=O)C(O)C2O)cc1)OCC` (stereo in doubt) [AMB246.1, 4-[2-((2S,3R,4S,5R)-5-(2,4-Dioxo-3,4-dihydropyrimidin-1(2H)-yl)-3,4-dihydroxy-tetrahydrofurane-2-carboxamido)ethaneamido]benzylphosphonic acid diethylester] reads “not to interfere”.

(Values after patent US20100204182A1, “ECTONUCLEOTIDASE INHIBITORS” (RHEINISCHE FRIEDRICH-WILHELMS-UNIVERSITAT BONN, priority 2006, published 2010).)
